# Data published in US20090263341A1, “SOFT ANTICHOLINERGIC ESTERS” (priority 2005, published 2009).
# System: electrically stimulated guinea pig tracheal strips
# Assay: Time course of anticholinergic effect in electrically stimulated guinea pig trachea
smiles,measurement,value
"CC(C)[N+]1(C)[C@@H]2CC[C@H]1CC(OC(=O)C(CO)c1ccccc1)C2.[Br-] (stereo partly shown) [Ipratropium Br, ipratropium bromide]",t1/5 offset,6.5 min
